{"sequences": {"note": "Amino acid sequences for entries named in this document (tags omitted). A change or cut given only in a name is not applied to a line headed by its entry.", "UniProt P08069": "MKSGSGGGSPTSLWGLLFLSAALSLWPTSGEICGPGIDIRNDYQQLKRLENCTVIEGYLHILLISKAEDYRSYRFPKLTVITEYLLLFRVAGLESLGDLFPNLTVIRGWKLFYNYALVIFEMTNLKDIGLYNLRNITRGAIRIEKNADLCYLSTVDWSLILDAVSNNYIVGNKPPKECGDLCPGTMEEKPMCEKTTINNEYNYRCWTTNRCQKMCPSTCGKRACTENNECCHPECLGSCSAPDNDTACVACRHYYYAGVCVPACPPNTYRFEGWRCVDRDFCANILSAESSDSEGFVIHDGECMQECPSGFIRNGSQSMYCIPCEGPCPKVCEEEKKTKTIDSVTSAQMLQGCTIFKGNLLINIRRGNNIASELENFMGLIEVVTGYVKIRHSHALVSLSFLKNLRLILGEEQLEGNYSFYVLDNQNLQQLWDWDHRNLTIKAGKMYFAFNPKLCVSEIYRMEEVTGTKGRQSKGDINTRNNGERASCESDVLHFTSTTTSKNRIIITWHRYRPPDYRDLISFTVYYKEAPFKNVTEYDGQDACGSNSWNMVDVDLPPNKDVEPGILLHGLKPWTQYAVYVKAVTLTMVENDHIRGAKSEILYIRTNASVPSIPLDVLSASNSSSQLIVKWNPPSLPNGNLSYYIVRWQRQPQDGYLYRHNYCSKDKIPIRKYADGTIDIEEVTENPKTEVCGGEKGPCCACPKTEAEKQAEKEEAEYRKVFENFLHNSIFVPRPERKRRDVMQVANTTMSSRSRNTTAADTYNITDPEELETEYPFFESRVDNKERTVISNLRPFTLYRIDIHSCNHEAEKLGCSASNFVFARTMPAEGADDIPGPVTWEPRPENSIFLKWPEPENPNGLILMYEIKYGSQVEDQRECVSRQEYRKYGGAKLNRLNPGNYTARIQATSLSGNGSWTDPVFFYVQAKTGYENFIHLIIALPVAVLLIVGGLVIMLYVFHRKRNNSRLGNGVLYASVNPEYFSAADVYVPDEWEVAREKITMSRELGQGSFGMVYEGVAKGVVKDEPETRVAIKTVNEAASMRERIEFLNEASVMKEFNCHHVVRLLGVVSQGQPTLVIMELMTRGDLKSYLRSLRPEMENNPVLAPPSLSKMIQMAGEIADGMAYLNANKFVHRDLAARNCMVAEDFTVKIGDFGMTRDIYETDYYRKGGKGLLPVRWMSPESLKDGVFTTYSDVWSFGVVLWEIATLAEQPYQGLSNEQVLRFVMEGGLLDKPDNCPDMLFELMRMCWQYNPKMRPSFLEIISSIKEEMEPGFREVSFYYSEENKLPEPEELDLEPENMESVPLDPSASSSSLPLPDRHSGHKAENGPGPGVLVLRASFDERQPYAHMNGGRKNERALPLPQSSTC"}, "source": "paper PMC11734454", "key": {"human IGF1R (human)": {"molecular_target": "human IGF1R (human) (UniProt P08069)", "assay": "SPR; IGF1R immobilised on a CM4 chip at high density (~2,500 RUs) in 10 mM acetate pH 4.0; analytes flowed at 40 uL/min, contact 300 s, dissociation 400 s; 25 C; HBS-EP or HBS-EP+ running buffer, pH 7.4, 150 mM NaCl; Biacore T200 or 3000; 1:1 binding model; both purified"}, "rhesus IGF1R (rhesus)": {"molecular_target": "rhesus IGF1R (rhesus)", "assay": "SPR; IGF1R immobilised on a CM4 chip at high density (~2,500 RUs) in 10 mM acetate pH 4.0; analytes flowed at 40 uL/min, contact 300 s, dissociation 400 s; 25 C; HBS-EP or HBS-EP+ running buffer, pH 7.4, 150 mM NaCl; Biacore T200 or 3000; 1:1 binding model; both purified"}}, "note": "Results are given in words; binding and its absence hold for the method and conditions named.", "data": [{"binder": "iduronate-2-sulfatase (enzyme, UniProt P22304 26-550) SETQANSTTDALNVLLIIVDDLRPSLGCYGDKLVRSPNIDQLASHSLLFQNAFAQQAVCAPSRVSFLTGRRPDTTRLYDFNSYWRVHAGNFSTIPQYFKENGYVTMSVGKVFHPGISSNHTDDSPYSWSFPPYHPSSEKYENTKTCRGPDGELHANLLCPVDVLDVPEGTLPDKQSTEQAIQLLEKMKTSASPFFLAVGYHKPHIPFRYPKEFQKLYPLENITLAPDPEVPDGLPPVAYNPWMDIRQREDVQALNISVPYGPIPVDFQRKIRQSYFASVSYLDTQVGRLLSALDDLQLANSTIIAFTSDHGWALGEHGEWAKYSNFDVATHVPLIFYVPGRTASLPEAGEKLFPYLDPFDSASQLMEPGRQSMDLVELVSLFPTLAGLAGLQVPPRCPVPSFHVELCREGKNLLKHFRFRDLEEDPYLPGNPRELIAYSQYPRPSDIPQWNSDKPSLKDIKIMGYSIRTIDYRYTVWVGFNPDEFLANFSDIHAGELYFVDSDPLQDHNMYNDSQGGDLFQLLMP", "values": [{"measurement": "binding", "setting": "human IGF1R (human)", "value": "no binding"}, {"measurement": "binding", "setting": "rhesus IGF1R (rhesus)", "value": "no binding"}]}]}
